Measured values taken from the supplement of paper PMC10849652.
The list shows a part of the results.

By UniProt entry, the sequences of proteins in these tests, tags left out. Where a name states a change or a piece, a line headed by the entry shows the natural chain unless it says otherwise.
UniProt Q9HA64: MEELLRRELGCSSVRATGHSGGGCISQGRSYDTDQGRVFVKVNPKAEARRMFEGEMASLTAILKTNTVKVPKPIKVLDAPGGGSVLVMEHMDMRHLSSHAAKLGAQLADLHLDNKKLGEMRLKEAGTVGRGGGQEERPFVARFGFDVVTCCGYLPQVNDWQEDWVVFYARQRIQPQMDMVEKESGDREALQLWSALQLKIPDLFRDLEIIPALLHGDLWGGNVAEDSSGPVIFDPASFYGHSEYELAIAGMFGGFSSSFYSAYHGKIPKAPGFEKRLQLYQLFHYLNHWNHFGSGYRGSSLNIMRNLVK
UniProt Q6UN15: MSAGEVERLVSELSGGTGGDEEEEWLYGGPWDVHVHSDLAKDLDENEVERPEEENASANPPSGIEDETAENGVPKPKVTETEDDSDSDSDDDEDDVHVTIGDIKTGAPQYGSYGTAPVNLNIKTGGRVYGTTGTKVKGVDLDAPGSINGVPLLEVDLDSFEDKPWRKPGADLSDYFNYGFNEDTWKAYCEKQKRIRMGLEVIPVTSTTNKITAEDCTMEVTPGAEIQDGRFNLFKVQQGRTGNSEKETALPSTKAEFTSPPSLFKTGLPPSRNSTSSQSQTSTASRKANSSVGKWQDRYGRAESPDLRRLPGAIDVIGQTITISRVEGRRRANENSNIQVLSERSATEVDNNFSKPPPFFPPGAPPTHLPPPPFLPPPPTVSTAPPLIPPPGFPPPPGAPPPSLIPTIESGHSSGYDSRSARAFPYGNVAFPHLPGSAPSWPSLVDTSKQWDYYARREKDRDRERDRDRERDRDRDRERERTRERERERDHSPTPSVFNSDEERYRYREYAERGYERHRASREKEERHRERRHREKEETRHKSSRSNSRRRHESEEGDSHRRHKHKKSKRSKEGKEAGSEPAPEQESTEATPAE
UniProt Q9UIM3: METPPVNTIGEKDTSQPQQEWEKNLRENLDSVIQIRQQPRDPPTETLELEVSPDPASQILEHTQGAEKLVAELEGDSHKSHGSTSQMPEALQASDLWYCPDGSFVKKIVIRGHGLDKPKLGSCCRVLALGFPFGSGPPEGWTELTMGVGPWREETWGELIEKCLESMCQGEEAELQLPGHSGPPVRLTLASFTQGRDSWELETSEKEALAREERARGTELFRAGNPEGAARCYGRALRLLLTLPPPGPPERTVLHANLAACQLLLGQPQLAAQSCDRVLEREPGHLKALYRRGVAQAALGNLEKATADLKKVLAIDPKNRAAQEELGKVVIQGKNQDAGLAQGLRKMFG
UniProt P10109: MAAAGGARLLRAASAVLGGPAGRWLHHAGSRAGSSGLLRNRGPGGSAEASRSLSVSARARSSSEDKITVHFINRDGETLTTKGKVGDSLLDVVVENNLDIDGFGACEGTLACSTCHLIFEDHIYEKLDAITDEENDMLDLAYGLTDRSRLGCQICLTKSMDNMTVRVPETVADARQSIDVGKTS
UniProt Q8IW50: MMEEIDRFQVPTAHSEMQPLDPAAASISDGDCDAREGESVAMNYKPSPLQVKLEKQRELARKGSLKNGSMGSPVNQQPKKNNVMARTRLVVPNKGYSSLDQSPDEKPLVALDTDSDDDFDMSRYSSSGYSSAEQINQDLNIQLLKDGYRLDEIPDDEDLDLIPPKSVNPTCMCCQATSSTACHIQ
UniProt Q658Y4: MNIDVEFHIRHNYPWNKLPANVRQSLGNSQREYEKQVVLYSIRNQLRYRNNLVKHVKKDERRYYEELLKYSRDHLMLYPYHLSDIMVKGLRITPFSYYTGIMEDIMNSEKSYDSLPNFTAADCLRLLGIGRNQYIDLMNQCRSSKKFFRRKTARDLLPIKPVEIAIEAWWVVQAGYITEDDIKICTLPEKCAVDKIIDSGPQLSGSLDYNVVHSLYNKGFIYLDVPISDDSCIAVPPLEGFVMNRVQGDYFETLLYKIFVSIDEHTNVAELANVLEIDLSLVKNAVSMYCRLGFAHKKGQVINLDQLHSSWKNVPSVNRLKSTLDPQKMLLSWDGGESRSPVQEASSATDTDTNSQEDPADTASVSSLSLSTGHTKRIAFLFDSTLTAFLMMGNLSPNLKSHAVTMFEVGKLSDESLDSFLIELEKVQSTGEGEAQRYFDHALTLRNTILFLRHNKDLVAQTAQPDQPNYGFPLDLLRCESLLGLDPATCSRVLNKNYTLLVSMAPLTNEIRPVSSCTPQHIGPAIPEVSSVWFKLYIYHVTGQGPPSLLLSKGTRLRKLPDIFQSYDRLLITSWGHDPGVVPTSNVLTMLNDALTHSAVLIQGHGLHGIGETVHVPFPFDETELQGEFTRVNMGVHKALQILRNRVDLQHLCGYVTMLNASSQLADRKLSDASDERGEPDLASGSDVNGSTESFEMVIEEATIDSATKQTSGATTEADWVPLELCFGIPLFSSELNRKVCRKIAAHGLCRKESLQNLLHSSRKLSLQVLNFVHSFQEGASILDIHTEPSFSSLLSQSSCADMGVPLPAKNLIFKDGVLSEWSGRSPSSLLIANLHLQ
UniProt Q9Y3I1: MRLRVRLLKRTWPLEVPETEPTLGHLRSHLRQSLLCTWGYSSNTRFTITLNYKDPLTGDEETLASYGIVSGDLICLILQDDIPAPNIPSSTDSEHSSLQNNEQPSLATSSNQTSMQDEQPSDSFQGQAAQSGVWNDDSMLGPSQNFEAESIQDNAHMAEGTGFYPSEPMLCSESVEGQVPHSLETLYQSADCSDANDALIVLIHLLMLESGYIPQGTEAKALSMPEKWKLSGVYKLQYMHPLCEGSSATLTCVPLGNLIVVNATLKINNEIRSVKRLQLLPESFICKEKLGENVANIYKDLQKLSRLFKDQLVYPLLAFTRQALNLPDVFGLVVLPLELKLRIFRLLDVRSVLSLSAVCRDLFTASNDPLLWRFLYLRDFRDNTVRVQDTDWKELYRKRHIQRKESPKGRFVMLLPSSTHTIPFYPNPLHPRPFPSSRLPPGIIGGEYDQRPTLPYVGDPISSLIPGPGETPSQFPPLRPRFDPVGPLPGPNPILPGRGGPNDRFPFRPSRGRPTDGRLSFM
UniProt Q5HYJ3: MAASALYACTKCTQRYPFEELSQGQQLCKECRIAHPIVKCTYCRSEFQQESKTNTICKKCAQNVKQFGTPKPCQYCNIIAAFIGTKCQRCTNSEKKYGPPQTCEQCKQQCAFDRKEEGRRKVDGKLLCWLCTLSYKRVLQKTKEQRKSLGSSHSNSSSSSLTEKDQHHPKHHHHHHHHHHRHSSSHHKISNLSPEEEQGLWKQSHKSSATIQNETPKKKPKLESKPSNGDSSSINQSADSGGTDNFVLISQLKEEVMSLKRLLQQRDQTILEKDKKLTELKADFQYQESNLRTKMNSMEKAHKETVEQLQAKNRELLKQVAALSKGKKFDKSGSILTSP
UniProt P98173: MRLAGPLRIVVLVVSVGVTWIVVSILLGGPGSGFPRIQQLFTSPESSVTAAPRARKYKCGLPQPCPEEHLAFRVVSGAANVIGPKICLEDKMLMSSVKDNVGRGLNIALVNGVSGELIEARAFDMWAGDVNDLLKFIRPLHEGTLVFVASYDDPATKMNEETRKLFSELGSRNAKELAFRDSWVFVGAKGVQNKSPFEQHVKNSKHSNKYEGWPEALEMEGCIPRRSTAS
UniProt Q13643: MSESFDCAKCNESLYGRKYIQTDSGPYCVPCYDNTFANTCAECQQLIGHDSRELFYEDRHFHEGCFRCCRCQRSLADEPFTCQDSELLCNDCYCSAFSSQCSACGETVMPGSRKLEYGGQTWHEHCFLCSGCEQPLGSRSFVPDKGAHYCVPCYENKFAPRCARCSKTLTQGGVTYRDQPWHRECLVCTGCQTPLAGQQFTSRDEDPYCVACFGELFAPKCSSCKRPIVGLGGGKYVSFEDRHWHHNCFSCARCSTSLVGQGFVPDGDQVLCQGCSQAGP
UniProt Q92913: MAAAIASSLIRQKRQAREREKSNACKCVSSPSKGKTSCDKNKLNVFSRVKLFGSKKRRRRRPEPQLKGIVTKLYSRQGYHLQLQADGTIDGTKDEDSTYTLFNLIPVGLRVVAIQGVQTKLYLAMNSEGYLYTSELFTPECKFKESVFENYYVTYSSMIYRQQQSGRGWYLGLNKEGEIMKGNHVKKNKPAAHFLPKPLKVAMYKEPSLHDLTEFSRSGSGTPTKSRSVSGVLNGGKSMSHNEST
UniProt P02751, whole entry, looked up: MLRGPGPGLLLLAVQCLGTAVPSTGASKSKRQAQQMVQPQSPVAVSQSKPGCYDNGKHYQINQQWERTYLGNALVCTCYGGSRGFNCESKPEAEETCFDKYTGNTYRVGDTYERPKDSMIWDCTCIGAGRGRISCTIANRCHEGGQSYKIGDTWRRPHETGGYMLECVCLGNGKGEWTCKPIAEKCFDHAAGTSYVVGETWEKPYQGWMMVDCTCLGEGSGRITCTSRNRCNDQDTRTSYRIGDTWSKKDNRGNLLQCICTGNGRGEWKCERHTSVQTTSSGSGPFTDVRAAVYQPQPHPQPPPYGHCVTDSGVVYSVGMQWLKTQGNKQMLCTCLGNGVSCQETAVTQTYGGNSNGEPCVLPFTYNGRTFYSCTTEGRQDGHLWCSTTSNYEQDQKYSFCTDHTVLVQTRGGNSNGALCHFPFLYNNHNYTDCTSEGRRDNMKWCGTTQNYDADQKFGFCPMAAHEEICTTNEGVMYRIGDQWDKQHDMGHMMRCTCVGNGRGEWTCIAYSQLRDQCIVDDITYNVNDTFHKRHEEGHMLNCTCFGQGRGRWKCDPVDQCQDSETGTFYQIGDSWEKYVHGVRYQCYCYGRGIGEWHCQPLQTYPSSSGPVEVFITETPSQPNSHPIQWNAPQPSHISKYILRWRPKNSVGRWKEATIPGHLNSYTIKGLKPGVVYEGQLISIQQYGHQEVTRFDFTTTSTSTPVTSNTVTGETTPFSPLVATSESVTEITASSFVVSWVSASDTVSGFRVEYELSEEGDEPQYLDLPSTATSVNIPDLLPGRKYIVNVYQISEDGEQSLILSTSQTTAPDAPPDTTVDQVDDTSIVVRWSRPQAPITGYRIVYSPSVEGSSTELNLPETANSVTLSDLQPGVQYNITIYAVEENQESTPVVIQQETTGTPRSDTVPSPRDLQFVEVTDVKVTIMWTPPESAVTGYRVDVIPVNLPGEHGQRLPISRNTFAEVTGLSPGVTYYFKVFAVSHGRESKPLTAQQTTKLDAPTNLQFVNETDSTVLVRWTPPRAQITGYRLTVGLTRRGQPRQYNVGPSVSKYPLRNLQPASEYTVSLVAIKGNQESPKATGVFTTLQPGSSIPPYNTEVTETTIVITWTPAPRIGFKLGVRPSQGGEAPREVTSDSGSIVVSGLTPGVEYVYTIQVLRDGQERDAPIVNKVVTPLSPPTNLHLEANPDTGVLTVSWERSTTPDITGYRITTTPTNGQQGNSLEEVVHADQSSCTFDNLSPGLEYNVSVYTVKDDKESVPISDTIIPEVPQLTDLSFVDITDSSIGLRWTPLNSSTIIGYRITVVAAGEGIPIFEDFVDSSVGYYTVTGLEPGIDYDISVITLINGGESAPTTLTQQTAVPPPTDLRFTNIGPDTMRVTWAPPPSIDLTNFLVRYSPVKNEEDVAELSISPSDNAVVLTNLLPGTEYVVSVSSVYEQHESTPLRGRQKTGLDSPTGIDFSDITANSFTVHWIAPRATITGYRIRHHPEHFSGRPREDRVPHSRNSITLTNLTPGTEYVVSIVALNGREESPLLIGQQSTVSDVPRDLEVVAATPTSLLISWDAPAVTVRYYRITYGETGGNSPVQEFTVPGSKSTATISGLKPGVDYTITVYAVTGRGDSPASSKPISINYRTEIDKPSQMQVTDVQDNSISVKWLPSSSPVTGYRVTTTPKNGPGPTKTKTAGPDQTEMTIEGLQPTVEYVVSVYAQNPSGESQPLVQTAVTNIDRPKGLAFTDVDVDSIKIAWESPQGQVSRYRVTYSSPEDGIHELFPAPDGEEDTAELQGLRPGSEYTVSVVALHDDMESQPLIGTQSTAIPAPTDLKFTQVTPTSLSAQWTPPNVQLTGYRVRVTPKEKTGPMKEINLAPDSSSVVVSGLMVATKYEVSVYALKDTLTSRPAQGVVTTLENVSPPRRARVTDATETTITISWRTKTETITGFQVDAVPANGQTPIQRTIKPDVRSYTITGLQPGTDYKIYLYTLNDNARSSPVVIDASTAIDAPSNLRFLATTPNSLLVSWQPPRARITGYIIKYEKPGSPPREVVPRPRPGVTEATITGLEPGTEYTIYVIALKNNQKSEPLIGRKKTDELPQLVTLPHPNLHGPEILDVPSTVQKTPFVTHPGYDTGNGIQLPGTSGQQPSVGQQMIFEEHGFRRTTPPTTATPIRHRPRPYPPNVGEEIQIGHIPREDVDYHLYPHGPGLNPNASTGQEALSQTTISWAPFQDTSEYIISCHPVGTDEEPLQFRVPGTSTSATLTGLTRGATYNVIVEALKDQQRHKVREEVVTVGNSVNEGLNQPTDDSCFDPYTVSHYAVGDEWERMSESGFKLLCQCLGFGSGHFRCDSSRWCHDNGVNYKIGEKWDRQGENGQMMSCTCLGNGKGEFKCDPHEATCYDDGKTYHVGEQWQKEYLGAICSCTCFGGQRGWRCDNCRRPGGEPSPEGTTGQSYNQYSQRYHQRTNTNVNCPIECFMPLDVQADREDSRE

The targets below were run with CN1CCc2c(c3ccccc3n2Cc2ccc(C(=O)NO)cc2)C1 [Tubastatin A] (assay: log2 fold change, soluble protein after heating vs DMSO (PISA); higher = thermal stabilisation; K562 cells, 10 uM, 30 min; active = over 0.2 and 3.5 SD of the protein, either way, in both replicates (recomputed)).
Summary of the method: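 Quantification of soluble protein used TMTpro 16plex LC-MS/MS, with channel sums equalised. Samples were the supernatant after 21,000xg for 90 min of pooled aliquots from K562 cells (2×10^6 cells/mL) treated with 10 μM compound for 30 min, heated for 3 min over 48°C-58°C, and extracted in PBS with 0.5% NP-40 at 4°C. Values, from duplicates, describe thermal stability against control samples on a log2 fold-change scale.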

log2 fold change, inactive:
FN3KRP (UniProt Q9HA64) -0.013
FCGR2A (UniProt P12318) -0.054
FKRP (UniProt Q9H9S5) 0
FDXR isoform 7 (UniProt P22570) -0.01
FIP1L1 (UniProt Q6UN15) -0.021
FAM234A (UniProt Q9H0X4) 0.04
FLNA (UniProt P21333) 0.052
FAM98A (UniProt Q8NCA5) 0.089
FLT4 (UniProt P35916) -0.033
FBXL12 (UniProt Q9NXK8) 0.102
FKBPL (UniProt Q9UIM3) 0.007
FDX1 (UniProt P10109) -0.025
FAM219A (UniProt Q8IW50) -0.015
FAM91A1 (UniProt Q658Y4) 0.005
FBXO30 (UniProt Q8TB52) 0.031
FBXO7 (UniProt Q9Y3I1) 0.019
FAM76B (UniProt Q5HYJ3) -0.067
FAM3A (UniProt P98173) 0.045
FANCB (UniProt Q8NB91) -0.151
FECH isoform 2 (UniProt P22830) -0.12
FHL3 (UniProt Q13643) -0.047
FKBP9 (UniProt O95302) 0.01
FAM49B (UniProt Q9NUQ9) -0.034
FASTKD2 (UniProt Q9NYY8) 0.037
FGF13 isoform 3 (UniProt Q92913) 0.03
FERMT3 (UniProt Q86UX7) -0.003
FBXO6 (UniProt Q9NRD1) -0.016
FBL (UniProt P22087) -0.022
FNBP4 isoform 2 (UniProt Q8N3X1) -0.02
FAR1 (UniProt Q8WVX9) 0.022
FBH1 isoform 2 (UniProt Q8NFZ0) 0.069
FARS2 (UniProt O95363) -0.045
FN1 isoform 1 (UniProt P02751) -0.044
FKBP4 (UniProt Q02790) -0.009
FKBP5 (UniProt Q13451) 0.041
FAM210A (UniProt Q96ND0) 0.023
FIS1 (UniProt Q9Y3D6) -0.021
FBXW9 (UniProt Q5XUX1) 0.015

3 entries drawn at random from those above:
log2 fold change, inactive:
FAM98A (UniProt Q8NCA5) 0.089
FHL3 (UniProt Q13643) -0.047
FDXR isoform 7 (UniProt P22570) -0.01
